Measurements reported in PubChem BioAssay AID1259308 (NCATS, 2017)
Screen: 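Genes whose loss raises luciferase production in HEK293 cells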 (primary screen). Cell system: human HEK293 embryonic kidney cells stably expressing firefly luciferase (HEK-CMV-Luc2-Hygro). Reagent: single siRNA against human genes, 0.8 pmol siRNA per well. Timing: 72 h. Read-out: 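Luciferase light (ONE-Glo) measured on one replicate plate set and viability (CellTiter-Glo) on the other, scaled to a negative control siRNA, with robust z-scores and luciferase per cell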. Reading the numbers: total luciferase, z-score and total luciferase, % of control: higher = more reporter protein produced. Call rule: 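An siRNA counts as active if its total luciferase robust z-score exceeds 3; genes with two or more such siRNAs out of three were retested with fresh siRNAs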. Calls: active = raised luciferase; inactive = no rise.
This is one part, drawn at random, of about 59,000 deposited reagents. Of all reagents, about 1,510 (2.6%) are marked active. 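Calls use total luciferase alone and ignore viability, so some active siRNAs may act by altering cell number.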 Reagents against one gene are numbered here. Further read-outs or replicates are left out here.

Against SLIRP-OT1 #1 the deposit lists total luciferase, z-score -0.00374; total luciferase, % of control 81.8; inactive.
For SLIRP-OT1 #2, the entry reads total luciferase, z-score 1.74; total luciferase, % of control 116; inactive.
For SLIRP-OT1 #3 the deposit lists total luciferase, z-score -0.258; total luciferase, % of control 76.8; inactive.
For CETN3 #1, the entry reads total luciferase, z-score -0.482; total luciferase, % of control 72.3; inactive.
After knock-down of CETN3 #2, the screen gave total luciferase, z-score -0.89; total luciferase, % of control 64.2; inactive.
Against CETN3 #3 the deposit lists total luciferase, z-score -1.15; total luciferase, % of control 59; inactive.
With knock-down of PARG #1, the screen gave total luciferase, z-score -1.75; total luciferase, % of control 47.2; inactive.
Against PARG #2 the deposit lists total luciferase, z-score 1.62; total luciferase, % of control 114; inactive.
After knock-down of PARG #3 the results were total luciferase, z-score 0.341; total luciferase, % of control 88.7; inactive.
For H2BC4 #1, the values are total luciferase, z-score 0.754; total luciferase, % of control 96.9; inactive.
With knock-down of H2BC4 #2, the screen gave total luciferase, z-score 0.283; total luciferase, % of control 87.5; inactive.
H2BC4 #3 showed total luciferase, z-score 0.48; total luciferase, % of control 91.4; inactive.
